Measured values taken from the supplement of paper PMC8728848.
The list shows a part of the results.

Columns and labels:
Test in all cases: glycan array binding signal (z-score within array); higher = stronger binding
Details in all cases: glycan notation: IUPAC condensed, linker removed
[1] = biological target: Fuc(a1-2)[GalNAc(a1-3)]Gal(b1-3)GlcNAc(b1-6)GalNAc
In short: (§1)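 Glycan array data came from 3228 arrays in the Consortium for Functional Glycomics database, and only arrays with an available protein sequence were kept. Glycan names were put into IUPAC-condensed notation, and columns mapping to the same glycan were averaged. The binding signal is a within-array Z-score, averaged across arrays of one protein sequence run at different concentrations or buffers and across linkers. A negative Z-score can be read as non-binding.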

[2] = biological target: Fuc(a1-2)[GalNAc(a1-3)]Gal(b1-4)Glc
In short: as §1

[3] = biological target: Fuc(a1-2)[GalNAc(a1-3)]Gal(b1-4)GlcNAc
In short: as §1

[4] = biological target: Fuc(a1-2)[GalNAc(a1-3)]Gal(b1-4)GlcNAc(b1-2)Man
In short: as §1

[5] = biological target: Fuc(a1-2)[GalNAc(a1-3)]Gal(b1-4)GlcNAc(b1-2)Man(a1-3)[Fuc(a1-2)[GalNAc(a1-3)]Gal(b1-4)GlcNAc(b1-2)Man(a1-6)]Man(b1-4)GlcNAc(b1-4)GlcNAc
In short: as §1

[6] = biological target: Fuc(a1-2)[GalNAc(a1-3)]Gal(b1-4)GlcNAc(b1-2)Man(a1-3)[Fuc(a1-2)[GalNAc(a1-3)]Gal(b1-4)GlcNAc(b1-2)Man(a1-6)]Man(b1-4)GlcNAc(b1-4)[Fuc(a1-6)]GlcNAc
In short: as §1

[7] = biological target: Fuc(a1-2)[GalNAc(a1-3)]Gal(b1-4)GlcNAc(b1-3)Gal(b1-4)GlcNAc
In short: as §1

[8] = biological target: Fuc(a1-2)[GalNAc(a1-3)]Gal(b1-4)GlcNAc(b1-3)Gal(b1-4)GlcNAc(b1-3)Gal(b1-4)GlcNAc
In short: as §1

[9] = biological target: Fuc(a1-2)[GalNAc(a1-3)]Gal(b1-4)GlcNAc(b1-3)GalNAc
In short: as §1

[10] = biological target: Fuc(a1-2)[GalNAc(a1-3)]Gal(b1-4)GlcNAc(b1-3)[Fuc(a1-2)[GalNAc(a1-3)]Gal(b1-4)GlcNAc(b1-6)]GalNAc
In short: as §1

[11] = biological target: Fuc(a1-2)[GalNAc(a1-3)]Gal(b1-4)GlcNAc(b1-6)GalNAc
In short: as §1

[12] = biological target: Fuc(a1-2)[GalNAc(a1-3)]Gal(b1-4)[Fuc(a1-3)]GlcNAc
In short: as §1

[13] = biological target: Fuc(a1-2)[GalNAc(a1-3)]Gal(b1-4)[Fuc(a1-3)]GlcNAc(b1-3)GalNAc
In short: as §1

[14] = biological target: Fuc(a1-2)[GalNAc(a1-4)]Gal(b1-4)GlcNAc
In short: as §1

[15] = biological target: Fuc(a1-2)[GalNAc(b1-3)]Gal
In short: as §1

Fuc(a1-3)GlcNAc = biological target: Fuc(a1-3)GlcNAc
In short: as §1

[16] = biological target: Fuc(a1-3)[Gal(b1-4)]Glc6S
In short: as §1

[17] = biological target: Fuc(a1-3)[Gal(b1-4)]GlcNAc
In short: as §1

[18] = biological target: Fuc(a1-3)[Gal(b1-4)]GlcNAc(b1-2)Man
In short: as §1

[19] = biological target: Fuc(a1-3)[Gal(b1-4)]GlcNAc(b1-2)Man(a1-3)[Fuc(a1-3)[Gal(b1-4)]GlcNAc(b1-2)Man(a1-6)]Man(b1-4)GlcNAc(b1-4)GlcNAc
In short: as §1

[20] = biological target: Fuc(a1-3)[Gal(b1-4)]GlcNAc(b1-2)Man(a1-3)[Fuc(a1-3)[Gal(b1-4)]GlcNAc(b1-2)Man(a1-6)]Man(b1-4)GlcNAc(b1-4)[Fuc(a1-6)]GlcNAc
In short: as §1

[21] = biological target: Fuc(a1-3)[Gal(b1-4)]GlcNAc(b1-3)Gal(b1-3)[Fuc(a1-4)]GlcNAc
In short: as §1

[22] = biological target: Fuc(a1-3)[Gal(b1-4)]GlcNAc(b1-3)Gal(b1-4)[Fuc(a1-3)]GlcNAc
In short: as §1

[23] = biological target: Fuc(a1-3)[Gal(b1-4)]GlcNAc(b1-3)Gal(b1-4)[Fuc(a1-3)]GlcNAc(b1-3)Gal(b1-4)[Fuc(a1-3)]GlcNAc
In short: as §1

[24] = biological target: Fuc(a1-3)[Gal(b1-4)]GlcNAc(b1-3)GalNAc
In short: as §1

[25] = biological target: Fuc(a1-3)[Gal(b1-4)]GlcNAc(b1-6)GalNAc
In short: as §1

[26] = biological target: Fuc(a1-3)[Gal(b1-4)]GlcNAc(b1-6)[Gal(b1-3)GlcNAc(b1-3)]Gal(b1-4)Glc
In short: as §1

[27] = biological target: Fuc(a1-3)[Gal(b1-4)]GlcNAc6S
In short: as §1

[28] = biological target: Fuc(a1-3)[Gal3S(b1-4)]Glc
In short: as §1

[29] = biological target: Fuc(a1-3)[Gal3S(b1-4)]GlcNAc
In short: as §1

[30] = biological target: Fuc(a1-3)[Gal3S(b1-4)]GlcNAc6S
In short: as §1

[31] = biological target: Fuc(a1-3)[GalNAc(b1-4)]GlcNAc
In short: as §1

[32] = biological target: Fuc(a1-3)[GalNAc(b1-4)]GlcNAc6S
In short: as §1

Fuc(a1-4)GlcNAc = biological target: Fuc(a1-4)GlcNAc
In short: as §1

Fuc(b1-3)GlcNAc = biological target: Fuc(b1-3)GlcNAc
In short: as §1

Gal(a1-2)Gal = biological target: Gal(a1-2)Gal
In short: as §1

Gal(a1-3)Gal = biological target: Gal(a1-3)Gal
In short: as §1

B1: SspB C123 (Streptococcus gordonii), Q54186 (protein)
chain: MAHFHYSSLLAQPQINKEIKNEDGVDIDRTLVAKQSIGKFELKTEALTAGRPKTTSFVLVDPLPTGYKFDLDATKAASTGFDTTYDEASHTVTFKATDETLATYNADLTKPVETLHPTVVGRVLNDGATYTNNFTLTVNDAYGIKSNVVRVTTPGKPNDPDNPNNNYIKPTKVNKNKEGLNIDGKEVLAGSTNYYELTWDLDQYKGDKSSKEAIQNGFYYVDDYPEEALDVRPDLVKVADEKGNQVSGVSVQQYDSLEAAPKKVQDLLKKANITVKGAFQLFSADNPEEFYKQYVSTGTSLVITDPMTVKSEFGKTGGKYENKAYQIDFGNGYATEVVVNNVPKITPKKDVTVSLDPTSENLDGQTVQLYQTFNYRLIGGFIPQNHSEELEDYSFVDDYDQAGDQYTGNYKTFSSLNLTMKDGSVIKAGTDLTSQTTAETDATNGIVTVRFKEDFLQKISLDSPFQAETYLQMRRIAIGTFENTYVNTVNKVAYASAAALEHHHHHH
[1]
  glycan array binding signal (z-score): -0.099
[2]
  glycan array binding signal (z-score): 1.36
[3]
  glycan array binding signal (z-score): -0.406
[4]
  glycan array binding signal (z-score): 2.05
[5]
  glycan array binding signal (z-score): 0.49
[6]
  glycan array binding signal (z-score): -0.199
[7]
  glycan array binding signal (z-score): -2.11
[8]
  glycan array binding signal (z-score): 1.18
[9]
  glycan array binding signal (z-score): 2.16
[10]
  glycan array binding signal (z-score): 0.72
[11]
  glycan array binding signal (z-score): -1.47
[12]
  glycan array binding signal (z-score): 1.45
[13]
  glycan array binding signal (z-score): 0.243
[14]
  glycan array binding signal (z-score): -0.619
[15]
  glycan array binding signal (z-score): 1.69
Fuc(a1-3)GlcNAc
  glycan array binding signal (z-score): -1.31
[16]
  glycan array binding signal (z-score): 0.242
[17]
  glycan array binding signal (z-score): -0.536
[18]
  glycan array binding signal (z-score): 0.15
[19]
  glycan array binding signal (z-score): 0.605
[20]
  glycan array binding signal (z-score): 0.523
[21]
  glycan array binding signal (z-score): -0.194
[22]
  glycan array binding signal (z-score): -1.49
[23]
  glycan array binding signal (z-score): 0.089
[24]
  glycan array binding signal (z-score): 0.166
[25]
  glycan array binding signal (z-score): 1.07
[26]
  glycan array binding signal (z-score): -0.974
[27]
  glycan array binding signal (z-score): 1.33
[28]
  glycan array binding signal (z-score): 1.18
[29]
  glycan array binding signal (z-score): 0.073
[30]
  glycan array binding signal (z-score): 0.017
[31]
  glycan array binding signal (z-score): 0.959
[32]
  glycan array binding signal (z-score): -0.976
Fuc(a1-4)GlcNAc
  glycan array binding signal (z-score): -0.101
Fuc(b1-3)GlcNAc
  glycan array binding signal (z-score): -0.111
Gal(a1-2)Gal
  glycan array binding signal (z-score): 1.61
Gal(a1-3)Gal
  glycan array binding signal (z-score): -0.024
